This is one part of the list.
The sequences below were run against OsWRKY34 (Oryza sativa, UniProt Q0JBA9 1-250) (assay: protein-binding microarray (RPBM); PBS, 2% BSA, 51.3 ng/ul salmon testes DNA, 50 uM zinc acetate, 200 nM TF, 25 C, 1 h; high values mean tight binding). Details: protein: recombinant; tags: N-terminal polyhistidine and DsRed monomer fusion (pET32a); label: CyDye5-dUTP incorporated in the synthesized complementary strand; 3' TTTTT single-stranded linker to array surface; dsDNA, one strand shown.
Method in brief: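 Transcription factors were made in E. coli BL21-CodonPlus as N-terminal fusions to a polyhistidine tag and DsRed, then purified on Ni–NTA. After primer extension with Cy5-dUTP and blocking with 2% BSA, a custom Agilent array was exposed for 1 h at 25 °C to 200 nM protein in PBS, 2% BSA, salmon testes DNA and 50 µM zinc acetate. Washed arrays were scanned on an Axon 4000B, and the binding signal is per-feature fluorescence intensity in arbitrary units.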

The chains behind the UniProt entries cited, without tags or fusion partners.
UniProt Q0JBA9, entry or part of it: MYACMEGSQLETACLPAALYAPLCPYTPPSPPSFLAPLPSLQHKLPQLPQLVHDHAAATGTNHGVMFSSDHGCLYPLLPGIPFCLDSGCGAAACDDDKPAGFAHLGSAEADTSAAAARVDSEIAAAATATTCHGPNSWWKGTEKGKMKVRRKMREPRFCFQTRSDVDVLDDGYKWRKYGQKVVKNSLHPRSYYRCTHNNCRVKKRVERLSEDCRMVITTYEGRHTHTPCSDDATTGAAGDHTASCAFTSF

Sequence	binding signal
TCTTTTGGTCTTCTGCTCTTGTGCAGTTTCCACGCGCACCCGGAGTCACCTAGTGCAG	9360 fluorescence intensity (a.u.)
ACTTTATATTGGCCCACATTATATTTTTAAAATTTTGAGACGGAGTCACCTAGTGCAG	8720 fluorescence intensity (a.u.)
CTCTCCGTTTGTCATGAATAATTGGTCTTGTTTTTCTAACCGGAGTCACCTAGTGCAG	12600 fluorescence intensity (a.u.)
GTTCTCACACTTCAGATTGTTATGTTTGGCTATGCTGTCTCGGAGTCACCTAGTGCAG	9600 fluorescence intensity (a.u.)
AGTACTAGGGTGGTGTTATTTTCTCATGAAGATGAAGATTCGGAGTCACCTAGTGCAG	11700 fluorescence intensity (a.u.)
CATCTTCCAGGACGTCACCTTCACTTCGCTTCGCCTCTGCCGGAGTCACCTAGTGCAG	8520 fluorescence intensity (a.u.)
TCTTTCTCTACACCCACCCATAGACCACATCGCCCTTGATCGGAGTCACCTAGTGCAG	11500 fluorescence intensity (a.u.)
TGCCAAAGCTCTATCCATTTTGCCTCTACTCAATCGTCCACGGAGTCACCTAGTGCAG	10200 fluorescence intensity (a.u.)
GACATAGAACCCAACTTTCCATTCTTTTGATTGTTTTTGGCGGAGTCACCTAGTGCAG	8390 fluorescence intensity (a.u.)
CTAGTAATTTGGTGTGGGATTTGTTGTTTACTTGTTTTCACGGAGTCACCTAGTGCAG	9290 fluorescence intensity (a.u.)
GTCACCTCTCCTTCATCCGGATAAGCTCAAGATCTCTTTCCGGAGTCACCTAGTGCAG	8170 fluorescence intensity (a.u.)
GTGGGTTCGTGTGCTCTCTCGCTCCTGCCATTGGTTGATGCGGAGTCACCTAGTGCAG	8580 fluorescence intensity (a.u.)
TCACAGCGGACCTGCTTCTTCGATTTGCTCATGGAGAATGCGGAGTCACCTAGTGCAG	8280 fluorescence intensity (a.u.)
CTTTACAATATTTATCATTCGTTCTACTCTTCAATTATTTCGGAGTCACCTAGTGCAG	8090 fluorescence intensity (a.u.)
CAATCGCTGTCATCTCATCTCCCAACCTTTTTTTTCTTACCGGAGTCACCTAGTGCAG	9710 fluorescence intensity (a.u.)
CGTGAGGACTCGTATATCTTCTTCCTGCTATAACATCTCACGGAGTCACCTAGTGCAG	8660 fluorescence intensity (a.u.)
GTCCATCCCTATCTCACTCGGTCGGTGCTAGTACTGCTTCCGGAGTCACCTAGTGCAG	9500 fluorescence intensity (a.u.)
CTGCCGCTTTATCTCTGCCCTTCGTCTGACATCTACGCGTCGGAGTCACCTAGTGCAG	8260 fluorescence intensity (a.u.)
GCTAAGATTTTCGCATGTGGCCAGTAGCCCAGTACTAAACCGGAGTCACCTAGTGCAG	8590 fluorescence intensity (a.u.)
GGTTTGACCGCGCGTCGCATCCCGTCATCCCCGTGCGTCGCGGAGTCACCTAGTGCAG	8860 fluorescence intensity (a.u.)
GCGGCACACCCAAATGCACCACGTGGACGGACATTTAGCACGGAGTCACCTAGTGCAG	8590 fluorescence intensity (a.u.)

Sequence	binding signal
GAACACGGCACCATCACCGTCACTCTTCCCGCTTCACAGTCGGAGTCACCTAGTGCAG	9700 fluorescence intensity (a.u.)
ATGACCACCGTGCATGCCCTTATAGTCTCAATTTACTTATCGGAGTCACCTAGTGCAG	8180 fluorescence intensity (a.u.)
ACTCACTTGTCGACAGAATCATTGATTTTTCCTTTTATGACGGAGTCACCTAGTGCAG	8200 fluorescence intensity (a.u.)
TTTCTTGTATTGGTGGCATCCAGCTTCTTCGTCTGTCTCTCGGAGTCACCTAGTGCAG	11500 fluorescence intensity (a.u.)
ATTCGGCGCCCCTACTCTTCCTCTCCGGCGAGCTTTTTCACGGAGTCACCTAGTGCAG	9710 fluorescence intensity (a.u.)
GGGTGGAATTTCTCGAACCCATGTACGCGTTTGACTTGATCGGAGTCACCTAGTGCAG	9450 fluorescence intensity (a.u.)
TTTTATAGTTTGTGTGTGATTGAGCCTGTAACTTTTTCATCGGAGTCACCTAGTGCAG	10000 fluorescence intensity (a.u.)
CTGCGACAACCGCTGCTCCGGCACCTACTGCTCCTGAGAACGGAGTCACCTAGTGCAG	8050 fluorescence intensity (a.u.)
TAACCTAACTGTTCTCGTCCATATCTAACGACGGCCGCCTCGGAGTCACCTAGTGCAG	8140 fluorescence intensity (a.u.)
TGAGTTTTTGTTTGTATTGTTTGACTACTCGTCTTATTCACGGAGTCACCTAGTGCAG	10400 fluorescence intensity (a.u.)
TGTGGGCATGTGTGTTTTTCTTGCTTATTGGATTGCCGCACGGAGTCACCTAGTGCAG	8490 fluorescence intensity (a.u.)
CGCATCTCCAATTCAGTTTTTCTTTTTCCCTTTCGCATCTCGGAGTCACCTAGTGCAG	11900 fluorescence intensity (a.u.)
GCGCCTTTTTCCATCCATCTACGGCTACTTTCCTGCACGACGGAGTCACCTAGTGCAG	9910 fluorescence intensity (a.u.)
CTGCTGGCCTACTACTGTGTTGCTGCTTGTATCTTTTTTTCGGAGTCACCTAGTGCAG	15500 fluorescence intensity (a.u.)
ATAATTTGATCGATACGCCCTGTACTTTTTTCTTCAATTGCGGAGTCACCTAGTGCAG	8660 fluorescence intensity (a.u.)
TCGCTCTTCGATCTTCCGCCCAAGTTCTTCGCTCGCATCCCGGAGTCACCTAGTGCAG	12000 fluorescence intensity (a.u.)
TTCCCCTAATGCTATGCTCCTTGTTCTTTCGTCATTAGATCGGAGTCACCTAGTGCAG	11500 fluorescence intensity (a.u.)
TCCCCTATCCCATTAGCCAAACACTGCCTAACTGTTCACCCGGAGTCACCTAGTGCAG	9310 fluorescence intensity (a.u.)
TGTTCATTAGTATCATTTACTCTCTGACTACTTTTTAGCTCGGAGTCACCTAGTGCAG	9810 fluorescence intensity (a.u.)
GGTTGTAATCTATAGGGGTCCTTGTATAGAAATATCGTTTCGGAGTCACCTAGTGCAG	8880 fluorescence intensity (a.u.)
TCTCACCCGTCCATCGACCACAATCCAGCGGTCAGAAACTCGGAGTCACCTAGTGCAG	8920 fluorescence intensity (a.u.)

Sequence	binding signal
CGCCGCCGCCTAGCTTCTTCCCGTGCTCGCCCGTCGCCGACGGAGTCACCTAGTGCAG	8840 fluorescence intensity (a.u.)
CCGTCCCGCAATAGTTATCGCTTTGGGTTTTTCCTTTCAACGGAGTCACCTAGTGCAG	8190 fluorescence intensity (a.u.)
ATTATATTGTTGGTTTAACTCTCCACTGCTTTAAAAAGTACGGAGTCACCTAGTGCAG	8310 fluorescence intensity (a.u.)
GGGAGGATTTTTACTGTCCTTGATAGTGGCCGGTACCAAACGGAGTCACCTAGTGCAG	14100 fluorescence intensity (a.u.)
AAAACAATGGCAAAGTTTCTCTATCTGATCATCCTTTCATCGGAGTCACCTAGTGCAG	9030 fluorescence intensity (a.u.)
ACGTACCAACCTCATGGGCTTAATCGGCCCATTACGCGCTCGGAGTCACCTAGTGCAG	8290 fluorescence intensity (a.u.)
ATGTGGGTCAGGGTGGCATATCACAAATTTTGTAAAATTTCGGAGTCACCTAGTGCAG	8770 fluorescence intensity (a.u.)
TAGATATCAAATGTTAGGCTTTGGGTTGAATTTTGTTTTACGGAGTCACCTAGTGCAG	8150 fluorescence intensity (a.u.)
GTCCCCACTACTCCACCGCGCCTCTCGCTTCCTCCGTCCCCGGAGTCACCTAGTGCAG	15000 fluorescence intensity (a.u.)
CCAAGTCCAGGAGATCTTTTCCCTGTTCTTTCGTCGTTGTCGGAGTCACCTAGTGCAG	8680 fluorescence intensity (a.u.)
GTACTTATACTTGGACTCTCCTTTTCTTTTTTCTTTTTCTCGGAGTCACCTAGTGCAG	12700 fluorescence intensity (a.u.)
CGGGGTCTGGGATCTGGGTTTCCATTGGGCCACGAGGCGCCGGAGTCACCTAGTGCAG	9520 fluorescence intensity (a.u.)
ACCCTATGCTAGCATGCTACACCTTGTTTTTATCTCACTACGGAGTCACCTAGTGCAG	13900 fluorescence intensity (a.u.)
TTTTTTGTGGTACCGGTTTTTTTTCCTGTGCTATGGATTGCGGAGTCACCTAGTGCAG	10800 fluorescence intensity (a.u.)
CGAACAGACACGAGGGTTATCTTCCTTTTCTCTTCTTCTTCGGAGTCACCTAGTGCAG	8480 fluorescence intensity (a.u.)
TTCCTTTATTTTTTTTTCTCAAACGCTCTTGACACTTGAGCGGAGTCACCTAGTGCAG	9210 fluorescence intensity (a.u.)
AGTGTTTGTTCATTTTATAGCCATTTTTAACCTTTTTAAACGGAGTCACCTAGTGCAG	11000 fluorescence intensity (a.u.)
GCGCGGGCGGGCTAAAATTAGCGGGAGAGGGAGGAGTTGACGGAGTCACCTAGTGCAG	8280 fluorescence intensity (a.u.)
TCGCCATCTCCACCTCCTCCATTCCACCTCCACTCCCGCTCGGAGTCACCTAGTGCAG	8730 fluorescence intensity (a.u.)
GCATCATTATTTAGTATTTTATGTCTTTTATCTGTACAATCGGAGTCACCTAGTGCAG	15400 fluorescence intensity (a.u.)
GTCTCGTAATTTTCTGTTGAACTATGTAATTGATTTCTTTCGGAGTCACCTAGTGCAG	9590 fluorescence intensity (a.u.)

Rewritten as a markdown table: part of the list above

| Sequence | binding signal |
| --- | --- |
| AAAACAATGGCAAAGTTTCTCTATCTGATCATCCTTTCATCGGAGTCACCTAGTGCAG | 9030 fluorescence intensity (a.u.) |
| GTACTTATACTTGGACTCTCCTTTTCTTTTTTCTTTTTCTCGGAGTCACCTAGTGCAG | 12700 fluorescence intensity (a.u.) |

Next part.

Sequence	binding signal
CATCTCCACAGTACACGAGTGCTCATTGCCTTCCAAGCACCGGAGTCACCTAGTGCAG	8390 fluorescence intensity (a.u.)
ACTTTTCTCCGTCATCGATCTCTCTTGCCTTAAATGGACGCGGAGTCACCTAGTGCAG	8620 fluorescence intensity (a.u.)
TTGTGATTTGTGGGATTAGTATCTCTGTCGGTGTCATATCCGGAGTCACCTAGTGCAG	9600 fluorescence intensity (a.u.)
CTTCTATCTGATCTACCAGCTGCTTGGTCCCTTGATGTGACGGAGTCACCTAGTGCAG	9670 fluorescence intensity (a.u.)
GCCATTATCCTCTTCCTCTCTAATTATCTCCCTGCCCGAACGGAGTCACCTAGTGCAG	9720 fluorescence intensity (a.u.)
TTCTTATTATTATTATTATTCATCTTGCATATGCACGCATCGGAGTCACCTAGTGCAG	9400 fluorescence intensity (a.u.)
CTCTTTCTCTCTCTCTGTGAATGGTGTCGGTTCTCCTGGTCGGAGTCACCTAGTGCAG	10900 fluorescence intensity (a.u.)
GGAGATCTTATACCCGATTTTACTGTTGAGGATTGTGACTCGGAGTCACCTAGTGCAG	8640 fluorescence intensity (a.u.)
GATCCGCGGCGCGGGTGGGGTTGTGGGGCGGGCGGAGATGCGGAGTCACCTAGTGCAG	19200 fluorescence intensity (a.u.)
TTCCACGATCCGCCAATCCGCTGCATTCACCCGTCACCACCGGAGTCACCTAGTGCAG	11500 fluorescence intensity (a.u.)
CCTGATCTCTTCATGCATAGCTCTATTTAAAATTTTCTTTCGGAGTCACCTAGTGCAG	10400 fluorescence intensity (a.u.)
TTTGTTTTTTCTCTTTTTTTTTCCCGAATTCCCAGACCAACGGAGTCACCTAGTGCAG	9150 fluorescence intensity (a.u.)
TGTTCTTGCTACGCTGGGAGGGGAGGGGTGGCGCCGCGGCCGGAGTCACCTAGTGCAG	21700 fluorescence intensity (a.u.)
ACTAGTGGGAATTTCCCCTGCAAATTTACTGTCAGCTTTTCGGAGTCACCTAGTGCAG	8530 fluorescence intensity (a.u.)
TATCTTCTTCAGGGTCGACCTCTTGCCCTTCTCACGTTCGCGGAGTCACCTAGTGCAG	11800 fluorescence intensity (a.u.)
GGCTGTCCATATCGTTTACATATTGTGCACGTACGTACGCCGGAGTCACCTAGTGCAG	11500 fluorescence intensity (a.u.)
TCTGTCTTTGAACTCACATCAATTAGCTTAAGTTTCCATACGGAGTCACCTAGTGCAG	8850 fluorescence intensity (a.u.)
GCCATTAATACGGCAGGTCGCCCATCCCATCGCGTCTCCTCGGAGTCACCTAGTGCAG	8320 fluorescence intensity (a.u.)
GTCTGGTTTAGTTCCTAATTTTTTCTTCAAACTTTTAACTCGGAGTCACCTAGTGCAG	10300 fluorescence intensity (a.u.)
TGTGCAGTTTTGCTGTTTATGACTAGTTTACCTGTTGTCTCGGAGTCACCTAGTGCAG	10800 fluorescence intensity (a.u.)
CACTATTCCTTTCCGGATTGCTTCTGCGTTCTACTTGATGCGGAGTCACCTAGTGCAG	11000 fluorescence intensity (a.u.)

Single values from the results shown.
Under binding signal, GTCCCCACTACTCCACCGCGCCTCTCGCTTCCTCCGTCCCCGGAGTCACCTAGTGCAG has the entry 15000 fluorescence intensity (a.u.)
Under binding signal, GGGTGGAATTTCTCGAACCCATGTACGCGTTTGACTTGATCGGAGTCACCTAGTGCAG has the entry 9450 fluorescence intensity (a.u.)
